Measurements taken from the supplement of paper PMC10735217.
Counter-ions that a name gives are not always drawn. This is one part of the list. Single values are uncertain here, since repeats match poorly.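 Human kidney-derived cells stably carry a construct in which eight TEAD-binding elements drive luciferase, measured by luminescence in a drug-repurposing library screen. A hit is any compound whose signal exceeds the plate mean by more than five robust Z scores.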

Test system: HEK293A TEAD-LUC reporter
Experiment: TEAD-luciferase reporter activity (YAP activation), robust Z score vs plate; higher = stronger YAP/TEAD activation
Settings: 24 h

Compound	TEAD-luciferase reporter activity (compound concentration: 200 nM)	TEAD-luciferase reporter activity (compound concentration: 10 uM)	TEAD-luciferase reporter activity (compound concentration: 2 uM)
O=C(NC1CCCN(c2nc3ncccc3o2)C1)c1ccccc1 (centres undefined)	inactive: 4.86	inactive: 2.31	–
CC[C@]1(c2cccc(NS(C)(=O)=O)c2)[C@@H]2CN(CC3(O)Cc4ccccc4C3)C[C@@H]21	inactive: 4.33	inactive: 1.2	inactive: -0.654
Cc1ccc(-c2c3n(c(=O)c4ncccc24)CC[C@H](C)CN(Cc2cc(C(F)(F)F)cc(C(F)(F)F)c2)C3=O)cc1	inactive: -0.808	inactive: 1.83	inactive: 0.571
COc1cc2c(Nc3ccc(NC(=O)c4ccccc4)cc3)ncnc2cc1OCCCN1CCOCC1	inactive: 0.353	inactive: 2.05	inactive: -0.923
CCN(CC)CCN1C(=O)c2c(c3c4cccc(Cl)c4n([C@@H]4O[C@H](CO)[C@@H](OC)[C@H](O)[C@H]4O)c3c3[nH]c4c(Cl)cccc4c23)C1=O [Becatecarin]	inactive: -0.0296	inactive: -1.09	inactive: -1.14
CC1(C)CC(NC(=O)C(=O)Nc2ccc(Cl)cc2)CC(C)(C)N1	inactive: 0.0138	inactive: -1.82	inactive: 1.41
CCC(=O)OC(CC)(c1ccccc1)C1CCN(C)C1 (centres undefined)	inactive: 0.344	inactive: 2.97	inactive: -0.238
CCCCC[C@H](O)/C=C/[C@H]1[C@H](O)CC(=O)[C@@H]1CCCCCCC(=O)O [Prostaglandin E1]	inactive: -0.655	inactive: 2.2	–
CCCCC[C@H](O)/C=C/[C@H]1[C@H](O)CC(=O)[C@@H]1CCCCCCC(=O)O [lipo-alprostadil]	–	–	inactive: -0.655
O=C(NC1CCCCCC1)C1CCN(c2ccnc(C(F)(F)F)n2)CC1	inactive: -1.55	inactive: -1.8	inactive: -0.0478
C[C@]1(C(=O)N(CCCC(=O)O)Cc2cccc(Cl)c2)CCN1C(=O)c1csc2ccccc12	inactive: -0.964	inactive: 1.63	inactive: -0.647
Cc1ccc(-n2c(COc3ccc(Cl)c(C)c3)n[nH]c2=O)cc1	inactive: -1.64	inactive: -0.866	inactive: -1.17
CCC(=O)O[C@@H]1CC(=O)O[C@H](C)C/C=C/C=C/[C@H](O)[C@H](C)C[C@H](CC=O)[C@H](O[C@@H]2O[C@H](C)[C@@H](O[C@H]3C[C@@](C)(O)[C@@H](OC(=O)CC)[C@H](C)O3)[C@H](N(C)C)[C@H]2O)[C@H]1OC [Midecamycin]	inactive: -1.33	inactive: 1.72	inactive: 0.109
Nc1nc(CC(=O)Nc2ccc(CCNC[C@H](O)c3ccccc3)cc2)cs1 [Mirabegron]	inactive: -2.81	inactive: -1.37	inactive: -1.12
NC(=O)NC(c1ccccc1)c1cccc(Cl)c1 (centres undefined) [meta-Chlorobenzhydryl urea]	inactive: -0.875	inactive: -1.11	inactive: -1.26
COc1cc2nc(N3CCN(C(=O)CC(C)O)CC3)nc(N)c2cc1OC (centres undefined)	inactive: -1.67	inactive: 1.52	inactive: -0.918
CC(=O)OCC(COC(C)=O)OC(C)=O [Triacetin]	inactive: 4.11	inactive: 0.599	inactive: -1.19
Cc1cc2c(cc1C)C(=O)c1[nH]nnc1C2=O	inactive: -1.35	inactive: -2	inactive: -0.801
CC(C)(CO)NCC(=O)N1C[C@@H](F)C[C@H]1C#N	inactive: -1.4	inactive: 2.13	inactive: 0.556
Cc1ccc(N2CCc3ncnc(NC(C)c4cnc(C)nc4)c3C2)nc1 (centres undefined)	inactive: 0.249	inactive: 1.89	inactive: -0.746
CN(C)CC(=O)N1CCC(c2ccc(NC(=O)c3nc(C#N)c[nH]3)c(C3=CCCCC3)c2)CC1	inactive: -0.984	inactive: 2.79	inactive: 0.359
CC(=O)NCC(=O)N[C@@H](C)C(=O)N[C@@H](CCC(N)=O)C(=O)N[C@@H](Cc1ccccc1)C(=O)N[C@@H](CO)C(=O)N[C@@H](CCCCN)C(=O)N[C@H](C(=O)N[C@@H](C)C(=O)N[C@@H](C)C(=O)N[C@@H](CCCCN)C(=O)O)[C@@H](C)O	inactive: 0.257	inactive: 1.38	inactive: 0.817
O=c1c(O)c(-c2ccc(O)c(O)c2)oc2cc(O)cc(O)c12	inactive: 0.254	inactive: -0.647	inactive: 0.458
COc1ccccc1NS(=O)(=O)/C=C/c1ccccc1	inactive: 0.174	inactive: -1.46	inactive: 0.0502
CC(C)/N=c1\cc2n(-c3ccc(Cl)cc3)c3ccccc3nc-2cc1Nc1ccc(Cl)cc1 [Clofazimine]	–	–	inactive: 0.644

Compound	TEAD-luciferase reporter activity (compound concentration: 200 nM)	TEAD-luciferase reporter activity (compound concentration: 10 uM)	TEAD-luciferase reporter activity (compound concentration: 2 uM)
CC(C)/N=c1\cc2n(-c3ccc(Cl)cc3)c3ccccc3nc-2cc1Nc1ccc(Cl)cc1	inactive: -0.973	inactive: -1.22	–
CCOCCN(Cc1ccc(CN(CCOCC)C(=O)C(Cl)Cl)cc1)C(=O)C(Cl)Cl	inactive: -0.879	inactive: 1.23	inactive: -1.31
C[C@@H]1[C@H](O)[C@@H](C)/C=C/C=C/C=C/C=C/C=C/C=C/C=C/[C@H](O[C@@H]2O[C@H](C)[C@@H](O)[C@H](N)[C@@H]2O)C[C@@H]2O[C@](O)(C[C@@H](O)C[C@@H](O)[C@H](O)CC[C@@H](O)C[C@@H](O)CC(=O)O[C@H]1C)C[C@H](O)[C@H]2C(=O)O [Amphotericin B]	inactive: 1.48	inactive: -1.57	–
C[C@@H]1[C@H](O)[C@@H](C)/C=C/C=C/C=C/C=C/C=C/C=C/C=C/[C@H](O[C@@H]2O[C@H](C)[C@@H](O)[C@H](N)[C@@H]2O)C[C@@H]2O[C@](O)(C[C@@H](O)C[C@@H](O)[C@H](O)CC[C@@H](O)C[C@@H](O)CC(=O)O[C@H]1C)C[C@H](O)[C@H]2C(=O)O	–	–	inactive: 1.61
COc1ccc(S(=O)(=O)Nc2cccc3c2Nc2ccc(F)cc2CN3)cc1	inactive: -0.709	inactive: 1.27	inactive: 0.909
CCOC(=O)C1=C[C@@H](OC(CC)CC)[C@H](NC(C)=O)[C@@H](N)C1 [oseltamivir phosphate (tablet)]	inactive: -1.05	inactive: -1.14	inactive: 1.95
COc1cccc([C@H](Oc2ccc3c(cnn3-c3ccc(F)cc3)c2)[C@H](C)NC(=O)C(F)(F)F)c1	inactive: 0.686	inactive: 2.03	inactive: 1.1
CCN(CC)CCn1c2c(c3ccc(OC)cc31)CCN1C[C@H]3C[C@@H](OC(=O)c4cc(OC)c(OC)c(OC)c4)[C@H](OC)[C@@H](C(=O)OC)[C@H]3C[C@H]21	inactive: -0.683	inactive: 0.407	inactive: -0.0153
COc1cc(OC)nc(O[C@H](C(=O)O)C(OC)(c2ccccc2)c2ccccc2)n1 [Darusentan]	inactive: -0.86	inactive: -0.618	inactive: 0.406
O=C(O)C1CCC(c2cc3cccnc3c(-c3cccc(F)c3)n2)CC1 (centres undefined)	inactive: -1.39	inactive: 0.468	inactive: -0.163
CC1(C)C2CCC1(S(=O)(=O)O)C(=O)C2 (centres undefined)	inactive: -1.34	inactive: 0.354	inactive: 4.86
O=S(=O)(c1ccc(F)cc1)N1CCn2c3c(c4cc(C5CCCCC5)ccc42)CCCC31 (centres undefined)	inactive: -0.442	inactive: -0.978	inactive: -1.09
Cc1c(C)c2c(c(C)c1O)CC[C@@](C)(C(=O)N1CCN(c3ccc(NC(=N)c4cccs4)cc3)CC1)O2	inactive: 1.28	inactive: 0.012	inactive: 0.845
CCN(CC)CC(=O)NC1c2ccccc2CS(=O)(=O)c2ccccc21 (centres undefined) [amidepin]	inactive: 0.135	inactive: -0.453	inactive: -1.7
COc1ccc2c(c1)CCC(c1ccccc1)=C2c1ccc(OCCN2CCCC2)cc1 [nafoxidine]	inactive: -0.987	inactive: -2.06	inactive: 0.331
Cc1nc(C#Cc2ccnc(Cl)c2)c(C)n1-c1ccc(F)cc1 [Basimglurant sulfate]	inactive: -1.6	inactive: -3.54	inactive: -0.365
O=C(CO)CO [dihydroxyacetone, Vinas]	inactive: -1.52	inactive: -0.409	–
O=C(CO)CO [dihydroxyacetone]	–	–	inactive: -1.13
CC(C)(C)NCc1cc(Nc2ccnc3cc(Cl)ccc23)cc(-c2ccc(Cl)cc2)c1O [tebuquine]	inactive: 1.09	inactive: 0.0791	inactive: -0.313
OCc1ccccc1O	inactive: -0.969	inactive: 0.33	inactive: 0.467
CCC(CC)CC(=O)c1c(C(=O)OC)c(-c2ccc(OC)c(OC)c2)c2c(OC)c(OC)c(OC)cc2c1O	inactive: -0.753	inactive: 1.73	inactive: 3.44
O=S(=O)([O-])CC(S)CS (centres undefined) [Sodium 2,3-dimercapto-1-propanesulfonate]	inactive: -0.96	inactive: 1.37	inactive: 0.205
CC1(C)S[C@@H]2[C@H](NC(=O)Cc3ccccc3)C(=O)N2C1C(=O)O (some centres undefined) [Penicillin G Potassium (Benzylpenicillin)]	inactive: -1.53	inactive: -0.842	–
CC1(C)S[C@@H]2[C@H](NC(=O)Cc3ccccc3)C(=O)N2C1C(=O)O (some centres undefined) [Penicillin G sodium]	–	–	inactive: -1.24
CN1CC(O)C2=CC(=O)C(=O)C=C21 (centres undefined)	inactive: 0.0053	inactive: -0.556	inactive: -0.254

Retrieved one by one from the entries so far:
Compound	TEAD-luciferase reporter activity (compound concentration: 200 nM)	TEAD-luciferase reporter activity (compound concentration: 10 uM)	TEAD-luciferase reporter activity (compound concentration: 2 uM)
O=C(CO)CO [dihydroxyacetone]	–	–	inactive: -1.13
CCOCCN(Cc1ccc(CN(CCOCC)C(=O)C(Cl)Cl)cc1)C(=O)C(Cl)Cl	inactive: -0.879	inactive: 1.23	inactive: -1.31
CCC(CC)CC(=O)c1c(C(=O)OC)c(-c2ccc(OC)c(OC)c2)c2c(OC)c(OC)c(OC)cc2c1O	inactive: -0.753	inactive: 1.73	inactive: 3.44
